# The campaign covered roughly 300,000 compounds. About 3,700 (1.2%) were called active. The inconclusive results got no clear call from the source; some entries with a clear call stand among them for comparison. Calls come from the whole dose curve; tested in HEK293 cells. Potencies beside an inconclusive call are fits to weak or partial responses and may not hold up.
# Assay: qHTS for Inhibitors of binding or entry into cells for Lassa Virus; note: nearly all actives have a fitted effect of over 50% in size
# Conditions: Lassa virus pseudotype entry inhibition, cell reporter; activity change, negative = inhibition: at 37.9 µM (top of the series) unless noted
# % is set by controls: 0 for no effect and ±100 for the full control effect; potency is the fitted concentration of half-maximal effect.
SMILES,Potency,"activity change, negative = inhibition"
O=C(NNC(=O)C1CCCO1)c1ccc(F)cc1 (centres undefined),"inconclusive: 3.98 µM [inhibitor, partial curve, poor fit]",
COc1ccccc1C(=O)Nn1c(C2CCC2)nc2ccccc2c1=O,"inconclusive: 4.61 µM [activator, partial curve]",
CC(C)N(C(=O)c1ccc2nc(-c3ccccc3)c(-c3ccccc3)nc2c1)C(C)C,"inconclusive: 35.5 µM [inhibitor, single point]",
CCc1ccc(-c2nc(CN3CCC(C(=O)NCCc4ccc(OC)c(OC)c4)CC3)c(C)o2)cc1,"inconclusive: 32.6 µM [inhibitor, single point]",
COc1ccc(-n2nc([N+](=O)[O-])c(=NCc3cccnc3)n2O)cc1,"inconclusive: 28.2 µM [inhibitor, single point]",
COc1ccccc1C(=O)Nc1ccc2oc(-c3cccc(Cl)c3Cl)nc2c1,,inactive: 2.41% [at 46.1 µM]
Cc1ccc(CNC(=O)COC(=O)CCOc2ccc(C)cc2)cc1,"inconclusive: 35.5 µM [inhibitor, single point]",
CCCC(=O)NC1CCc2cc(OC)c(OC)c(OC)c2-c2ccc(OC)c(=O)cc21 (centres undefined),"inconclusive: 0.0891 µM [inhibitor, full curve, poor fit]",
O=C(CN1CCN(S(=O)(=O)c2ccc(Cl)c(Cl)c2)CC1)N1CCCCC1,"inconclusive: 8.91 µM [inhibitor, partial curve, poor fit]",
CCc1nc2ccccc2n1Cc1ccc(OC)c(OC)c1,,inactive: -0.368%
N/C(Cc1ccc(Cl)cc1)=N\OC(=O)C1CCCCC1,,inactive: 14.9%
CC(=O)NN1C(=O)/C(=C/c2ccc(C(C)C)cc2)SC1=S,"inconclusive: 1.41 µM [inhibitor, partial curve, poor fit]",
COc1ccc(CNC(=O)Cn2nnc(-c3ccc(C(F)(F)F)cc3)n2)cc1,,inactive: -3.82% [at 46.1 µM]
Cc1cc2oc(=O)sc2cc1NS(=O)(=O)c1cccc2cccnc12,"inconclusive: 10 µM [inhibitor, partial curve, poor fit]",
CCOC(=O)c1ccc(N2C(=O)c3n[nH]c(C)c3C2c2cccc(Br)c2)cc1 (centres undefined),"inconclusive: 11.2 µM [inhibitor, partial curve, poor fit]",
Cc1ccc(/C=C/C(=O)NCCc2ccccc2)o1,,inactive: 8.15% [at 46.1 µM]
O=C(CSc1nnc(Cc2cc(=O)[nH]c(=O)[nH]2)n1-c1ccc(Cl)cc1)NCC1CCCO1 (centres undefined),"inconclusive: 0.0046 µM [inhibitor, full curve, poor fit]",
COc1ccc(N2C(=O)[C@@H]3[C@H](C2=O)[C@H](C(=O)c2ccc(OC(C)=O)cc2)N2N=CC=C[C@@H]32)cc1,"inconclusive: 20.6 µM [activator, single point]",
O=C1C2C3C=CC(C3)C2C(=O)N1Nc1ccccc1 (centres undefined),"inconclusive: 35.5 µM [activator, partial curve, poor fit]",
COc1ccc(CNc2nc3ccccc3n2Cc2ccccc2)cc1OC,"inconclusive: 11.2 µM [inhibitor, single point]",
COc1ccc(OCCCC(=O)Nc2ncn[nH]2)cc1,"inconclusive: 0.282 µM [inhibitor, full curve, poor fit]",
CCc1c(C)sc(NC(=O)c2ccoc2C)c1C(N)=O,,inactive: 5.47%

SMILES,Potency,"activity change, negative = inhibition"
Nc1nnc(CCS(=O)(=O)c2ccc(Cl)cc2)s1,"inconclusive: 20.6 µM [activator, single point]",
CC(=O)Nc1cccc(/C(C)=N/NC(=O)c2cccs2)c1,,inactive: 11% [at 46.1 µM]
COc1ccc(NC(=O)c2nc[nH]c2C(=O)Nc2ccccc2C)cc1,"inconclusive: 5.01 µM [inhibitor, full curve]",
O=C(N/N=C/c1ccc2c(c1)OCO2)C(=O)N1CCCC1,"inconclusive: 17.8 µM [activator, single point]",
COC(=O)c1ccc(C(c2c(N)n(Cc3ccccc3)c(=O)n(C)c2=O)N2CCOCC2)cc1 (centres undefined),"inconclusive: 20.6 µM [inhibitor, partial curve, poor fit]",
COc1ccc(C(=O)N2CCN(c3ccccc3)CC2)cc1S(=O)(=O)NC1CC1,"inconclusive: 35.5 µM [activator, single point]",
CC(=O)Nc1ccc(O)cc1[N+](=O)[O-],"inconclusive: 11.2 µM [activator, partial curve, poor fit]",
O=C(N/N=C/c1cn(-c2ccccc2)nc1-c1ccc(F)cc1)c1ccc(Br)o1,"inconclusive: 35.5 µM [inhibitor, single point]",
COc1ccc(C(=O)NCC(=O)N2CCCC(C(F)(F)F)C2)cc1OC (centres undefined),"inconclusive: 35.5 µM [inhibitor, single point]",
CC1(C)CC2CC(C)(CN2CC(=O)C(C#N)c2ccccc2)C1 (centres undefined),"inconclusive: 14.6 µM [activator, partial curve]",
Cc1sc2c(c1C)c(=O)n(-c1ccc(Cl)cc1)c(=O)n2Cc1cc(=O)n2ccccc2n1,"inconclusive: 14.1 µM [activator, single point]",
Cc1ccc2nc(N3CCC(C(=O)N4CCN(c5cccc(C)c5C)CC4)CC3)[nH]c2c1,"inconclusive: 20 µM [inhibitor, single point]",
COc1cc(C(=O)NCC(=O)N/N=C(\C)Cc2ccccc2)cc(OC)c1OC,"inconclusive: 10 µM [activator, partial curve, poor fit]",
O=[N+]([O-])c1ccc(CNc2ccc(Cl)cc2)s1,active: 3.55 µM,
CC(C)Cn1c(=O)n(C)c(=O)c2[nH]cnc21,"inconclusive: 0.0517 µM [inhibitor, full curve, poor fit]",
COc1ccc(OC)c(NC(=O)c2cc(-c3ccc(Cl)s3)nc3ccccc23)c1,,inactive: 1.71% [at 46.1 µM]
CC1CCCC(C)N1C(=O)c1ccc(S(=O)(=O)NCc2ccco2)cc1 (centres undefined),,inactive: 19.7%
Cc1cc(=O)[nH]c2nnc(SCC(=O)Nc3ccc(OC(F)(F)F)cc3)n12,,inactive: 22.9% [at 46.1 µM]
O=c1[nH]c(=O)n(Cc2ccccc2)c2nc(-c3ccc(C(F)(F)F)cc3)n(CCO)c12,"inconclusive: 11.6 µM [inhibitor, partial curve, poor fit]",
CCCOC(=O)Nc1ccc(N2CCCCC2)cc1,"inconclusive: 3.66 µM [activator, partial curve, poor fit]",
O=C(COc1ccccc1)NCc1ccc2c(c1)CCN2C(=O)c1ccc(Cl)cc1,"inconclusive: 8.91 µM [inhibitor, partial curve, poor fit]",
Cc1sc(NC(=O)C2CCCCC2C(=O)O)c(C(N)=O)c1-c1ccc(C(C)(C)C)cc1 (centres undefined),"inconclusive: 15.8 µM [inhibitor, single point]",

SMILES,Potency,"activity change, negative = inhibition"
COc1cccc(/C=N/NC(=O)c2c(C)nc3ccc(Cl)cn23)c1O,"inconclusive: 1 µM [inhibitor, full curve, poor fit]",
Cc1ccc(C2CCN(C(=O)c3cnn(-c4cccc(Cl)c4)c3C3CCN(C(=O)OC(C)(C)C)CC3)C2)cc1 (centres undefined),"inconclusive: 3.55 µM [inhibitor, partial curve, poor fit]",
COc1ccc(CCNC(=O)c2c([S-])n(-c3ccc(C)cc3)c3cccc[n+]23)cc1,"inconclusive: 10 µM [inhibitor, partial curve, poor fit]",
COc1cc2c(cc1NC(=O)c1ccc3c(c1)OCO3)oc1ccccc12,"inconclusive: 4.11 µM [activator, full curve, poor fit]",
Cc1cc(C)cc(NC(=O)C(=O)NCC(c2ccc3c(c2)OCO3)N2CCN(C)CC2)c1 (centres undefined),"inconclusive: 8.91 µM [inhibitor, partial curve, poor fit]",
O=C(Nc1cnccn1)Nc1cccc(Cl)c1Cl,,inactive: -1.15%
Cc1cccc(C)c1NC(=O)CN(c1ccccn1)S(=O)(=O)c1ccccc1,"inconclusive: 0.562 µM [inhibitor, full curve, poor fit]",
COc1cc(C2c3cc4c(cc3OC(C)(N3CCCC3)C2C)OCO4)cc(OC)c1OC (centres undefined),"inconclusive: 1.12 µM [inhibitor, full curve]",
COc1ccccc1NS(=O)(=O)c1cc(NC(=O)c2ccc(Cl)nc2)ccc1N1CCCC1,"inconclusive: 25.1 µM [inhibitor, single point]",
O=C(Nc1ccc2c(c1)OCO2)c1ccc(N2CCCC2)c([N+](=O)[O-])c1,,inactive: -13.8%
Cc1cc(N/N=C/c2ccccc2[N+](=O)[O-])nc(-n2nc(C)cc2C)n1,"inconclusive: 15.8 µM [inhibitor, single point]",
O=C(NC(=S)N1CCOCC1)c1cc2ccccc2o1,,inactive: 8.94% [at 46.1 µM]
COc1ccc(C(CNC(=O)c2cccc(S(=O)(=O)Nc3cccc(C)c3)c2)N2CCOCC2)cc1 (centres undefined),,inactive: -7.48%
COC(=O)c1c(C)oc2c1cc(NS(=O)(=O)c1cccs1)c1ccccc12,,inactive: -17%
Cc1nc2cccnc2n1C1CCN(S(C)(=O)=O)CC1,"inconclusive: 31.6 µM [activator, single point]",
Cc1cccc(C)c1Nc1nnc(SCC(=O)NCc2ccco2)s1,"inconclusive: 4.47 µM [activator, partial curve, poor fit]",
COc1ccc(N2CCN(C3CC(=O)N(Cc4ccccc4)C3=O)CC2)cc1 (centres undefined),,inactive: -1.85% [at 46.1 µM]
Cc1cc(C(=O)OCC(=O)c2ccc3c(c2)OCCO3)c(C)o1,,inactive: -2.92%
CCN(CC)S(=O)(=O)c1ccc(NC(=O)NCc2noc3ccc(C)cc23)cc1,"inconclusive: 15.8 µM [inhibitor, single point]",
N=c1c(C(=O)NCCc2ccccc2)cc2c(=O)n3ccccc3nc2n1CCCN1CCOCC1,"inconclusive: 15.8 µM [inhibitor, single point]",

# Record cards, as listed above.
# `COc1ccc(CNc2nc3ccccc3n2Cc2ccccc2)cc1OC` is listed as Potency: inconclusive: 11.2 µM [inhibitor, single point]
# `COc1ccc(C(=O)N2CCN(c3ccccc3)CC2)cc1S(=O)(=O)NC1CC1` is listed as Potency: inconclusive: 35.5 µM [activator, single point]
# `COc1ccc(CNC(=O)Cn2nnc(-c3ccc(C(F)(F)F)cc3)n2)cc1` is listed as activity change, negative = inhibition: inactive: -3.82% [at 46.1 µM]
# `COc1ccc(NC(=O)c2nc[nH]c2C(=O)Nc2ccccc2C)cc1` is listed as Potency: inconclusive: 5.01 µM [inhibitor, full curve]
